# From publication PMC11127164
# Chains of the proteins cited; added tags and fusions are not shown. Residues count along the entry.
# UniProt Q9NZ52, residues 1-316: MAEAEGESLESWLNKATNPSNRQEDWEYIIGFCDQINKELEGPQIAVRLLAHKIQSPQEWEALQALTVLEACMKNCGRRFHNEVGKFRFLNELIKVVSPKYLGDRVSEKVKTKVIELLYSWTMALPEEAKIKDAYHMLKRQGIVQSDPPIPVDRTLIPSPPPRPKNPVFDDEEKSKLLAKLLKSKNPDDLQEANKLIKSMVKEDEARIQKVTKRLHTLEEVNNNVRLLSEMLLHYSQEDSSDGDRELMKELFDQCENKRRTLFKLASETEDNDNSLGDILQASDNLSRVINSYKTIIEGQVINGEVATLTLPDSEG
# UniProt P84085: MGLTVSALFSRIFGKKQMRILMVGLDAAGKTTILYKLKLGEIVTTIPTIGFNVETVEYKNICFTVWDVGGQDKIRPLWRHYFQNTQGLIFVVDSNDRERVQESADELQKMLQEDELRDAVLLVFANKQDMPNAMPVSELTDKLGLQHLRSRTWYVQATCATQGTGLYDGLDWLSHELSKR
# UniProt P62330: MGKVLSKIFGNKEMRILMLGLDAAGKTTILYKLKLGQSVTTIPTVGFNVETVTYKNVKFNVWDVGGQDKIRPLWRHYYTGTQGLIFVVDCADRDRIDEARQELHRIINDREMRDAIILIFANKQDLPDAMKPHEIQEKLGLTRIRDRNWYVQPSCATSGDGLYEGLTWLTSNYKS
# UniProt P84077: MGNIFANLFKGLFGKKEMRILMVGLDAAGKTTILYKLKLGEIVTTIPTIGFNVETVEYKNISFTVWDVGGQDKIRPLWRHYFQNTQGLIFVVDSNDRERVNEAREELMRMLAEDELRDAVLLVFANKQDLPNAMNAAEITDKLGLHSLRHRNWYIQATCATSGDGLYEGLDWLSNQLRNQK
# UniProt P18085: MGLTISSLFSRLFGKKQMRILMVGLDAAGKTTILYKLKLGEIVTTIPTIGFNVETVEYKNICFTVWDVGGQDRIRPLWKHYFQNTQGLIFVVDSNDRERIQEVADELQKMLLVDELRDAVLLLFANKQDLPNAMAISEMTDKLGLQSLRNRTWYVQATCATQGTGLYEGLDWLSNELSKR
# Results are given in words; binding and its absence hold for the method and conditions named. In cells and extracts the contact can be indirect. Some binding calls cover weakened binding; strength is not graded here.
# Target: glutathione S-transferase-fused Golgi-localized γ-adaptin ear-containing, ARF-binding protein 3 (1–316) (UniProt Q9NZ52)
# Assay: pull-down; GST-GGA3(1–316)-coated Sepharose beads incubated with lysates of GIST-T1 or PC-9 cells at 4 °C for 1 h, washed once, immunoblot for ARFs; cells untreated or treated with 1 μM M-COPA or 1 μM BFA for 4 h (GIST-T1) or 200 nM M-COPA for 8 h (PC-9); only the target purified
row,Substance,binding
1,ADP-ribosylation factor 5 (from UniProt P84085 1-180),binds
2,ADP-ribosylation factor 6 (from UniProt P62330 1-175),binds
3,ADP-ribosylation factor 1 (from UniProt P84077 1-181),binds
4,ADP-ribosylation factor 4 (from UniProt P18085 1-180),binds
